Data as given in publication PMC4444253.
Results are given in words; binding and its absence hold for the method and conditions named. Binding seen in cells or lysates may run through a third protein. A result given as binding can be weak or reduced; the word gives no strength.

Chains of the proteins cited; added tags and fusions are not shown. Lines headed by an entry give the natural chain unless they say otherwise; changes in a name come on top.
UniProt P50591: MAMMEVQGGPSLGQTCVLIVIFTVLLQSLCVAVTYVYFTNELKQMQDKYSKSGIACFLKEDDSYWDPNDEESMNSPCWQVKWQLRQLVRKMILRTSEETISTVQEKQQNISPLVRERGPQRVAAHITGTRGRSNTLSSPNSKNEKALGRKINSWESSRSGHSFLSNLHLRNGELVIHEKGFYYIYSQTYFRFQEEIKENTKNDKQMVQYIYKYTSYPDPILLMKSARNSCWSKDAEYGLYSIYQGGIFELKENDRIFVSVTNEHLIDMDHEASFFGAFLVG
UniProt Q13158: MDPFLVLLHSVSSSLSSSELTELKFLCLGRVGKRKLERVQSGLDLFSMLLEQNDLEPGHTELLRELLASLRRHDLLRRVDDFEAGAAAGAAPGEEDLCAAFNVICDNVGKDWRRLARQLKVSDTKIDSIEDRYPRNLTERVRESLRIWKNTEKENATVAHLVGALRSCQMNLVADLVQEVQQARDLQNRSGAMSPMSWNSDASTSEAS
UniProt Q14790: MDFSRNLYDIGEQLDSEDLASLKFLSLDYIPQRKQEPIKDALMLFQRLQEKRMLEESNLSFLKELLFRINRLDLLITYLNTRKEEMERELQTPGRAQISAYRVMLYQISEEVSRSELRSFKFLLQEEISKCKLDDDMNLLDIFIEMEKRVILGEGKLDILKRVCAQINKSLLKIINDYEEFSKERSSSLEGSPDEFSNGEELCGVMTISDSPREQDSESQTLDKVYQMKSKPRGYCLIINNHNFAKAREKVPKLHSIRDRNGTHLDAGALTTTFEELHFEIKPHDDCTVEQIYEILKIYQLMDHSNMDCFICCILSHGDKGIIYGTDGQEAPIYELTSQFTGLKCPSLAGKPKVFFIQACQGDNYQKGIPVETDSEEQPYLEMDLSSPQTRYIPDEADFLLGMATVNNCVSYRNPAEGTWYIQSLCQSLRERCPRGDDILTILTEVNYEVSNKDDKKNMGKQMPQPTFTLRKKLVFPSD
UniProt P15311: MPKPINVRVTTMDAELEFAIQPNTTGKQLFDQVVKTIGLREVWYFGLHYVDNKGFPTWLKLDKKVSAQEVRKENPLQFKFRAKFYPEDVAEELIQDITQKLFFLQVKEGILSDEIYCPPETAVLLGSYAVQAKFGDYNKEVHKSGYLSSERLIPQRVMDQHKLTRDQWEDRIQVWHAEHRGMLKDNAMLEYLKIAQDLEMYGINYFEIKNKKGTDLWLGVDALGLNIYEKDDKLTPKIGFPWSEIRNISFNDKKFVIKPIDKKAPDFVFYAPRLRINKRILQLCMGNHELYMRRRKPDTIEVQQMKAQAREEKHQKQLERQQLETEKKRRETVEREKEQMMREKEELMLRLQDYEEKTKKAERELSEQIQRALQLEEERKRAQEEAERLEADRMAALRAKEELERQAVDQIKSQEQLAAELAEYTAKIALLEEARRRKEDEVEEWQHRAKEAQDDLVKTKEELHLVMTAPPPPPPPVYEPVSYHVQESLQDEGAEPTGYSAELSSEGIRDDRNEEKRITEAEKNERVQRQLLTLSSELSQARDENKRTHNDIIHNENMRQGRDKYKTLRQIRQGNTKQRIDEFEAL

The molecules below were run against Flag-tagged recombinant soluble human TRAIL (human) (UniProt P50591) (assay: co-IP; TRAIL DISC analysis: 10^8 HCT116 or SW480 cells stimulated at 37°C with Flag-TRAIL cross-linked with anti-Flag M2, lysed in 1% NP40, 20 mM Tris-HCl pH 7.5, 150 mM NaCl, 10% glycerol; precipitated overnight at 4°C with protein G-Sepharose; western blot; also done in SW480 cells expressing ezrin WT, S66A or S66D; only the target purified).

Molecule	binding
adaptor protein FADD (from UniProt Q13158 1-208)	binds
caspase-8 (from UniProt Q14790 1-479) (enzyme)	binds
ezrin (from UniProt P15311 1-586)	no binding
caspase-10 (enzyme, UniProt Q92851 1-521) MKSQGQHWYSSSDKNCKVSFREKLLIIDSNLGVQDVENLKFLCIGLVPNKKLEKSSSASDVFEHLLAEDLLSEEDPFFLAELLYIIRQKKLLQHLNCTKEEVERLLPTRQRVSLFRNLLYELSEGIDSENLKDMIFLLKDSLPKTEMTSLSFLAFLEKQGKIDEDNLTCLEDLCKTVVPKLLRNIEKYKREKAIQIVTPPVDKEAESYQGEEELVSQTDVKTFLEALPQESWQNKHAGSNGNRATNGAPSLVSRGMQGASANTLNSETSTKRAAVYRMNRNHRGLCVIVNNHSFTSLKDRQGTHKDAEILSHVFQWLGFTVHIHNNVTKVEMEMVLQKQKCNPAHADGDCFVFCILTHGRFGAVYSSDEALIPIREIMSHFTALQCPRLAEKPKLFFIQACQGEEIQPSVSIEADALNPEQAPTSLQDSIPAEADFLLGLATVPGYVSFRHVEEGSWYIQSLCNHLKKLVPRMLKFLEKTMEIRGRKRTVWGAKQISATSLPTAISAQTPRPPMRRWSSVS	binds
